Experimental data published in PubChem BioAssay AID624297 (National Center for Advancing Translational Sciences (NCATS), 2012).
In all, about 340,000 compounds went through this assay and about 6,200 (1.8%) were called active. Inconclusive means that the source gave no clear call. Such entries were picked first, then a sample of the others. Calls come from the whole dose curve; as a rule, active = well fitted activation curve with a large enough effect; inconclusive = small, poorly fitted or top-dose-only effect; inactive = no such curve, though single readings can be large or run the other way. Where the call is inconclusive, the potency comes from a doubtful curve fit.

Assay: A quantitative high throughput screen for small molecules that induce DNA re-replication in SW480 colon adenocarcinoma cells. Note: nearly all actives have a fitted effect of over 55% in size.
Conditions: Hoechst DNA content imaging, 48 h; series mostly up to 46.1 µM
Outline: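 Quantitative HTS format with DMSO vehicle controls; 48 hr drug incubation at 37 C, then 40 min Hoechst staining and scanning imager measurement at 405 nm excitation.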
Potency is the fitted concentration of half-maximal effect.

| SMILES | Potency |
| --- | --- |
| CCCCn1c(SCC(=O)Nc2ccccc2C(F)(F)F)nc2ccsc2c1=O | inactive |
| CCN1c2ccccc2NC2C1C(C(C)=O)C(=O)N2c1ccc(Cl)cc1 (configuration not stated) | active: 4.61 µM |
| Cc1ccc(N2C(=O)Nc3ccccc3S2(=O)=O)cc1Cl | inactive |
| Cc1cc(C)c2c(N)c(C(=O)c3ccc(Br)cc3)oc2n1 | active: 2.59 µM |
| CCOC(=O)N1CCC(NC(=O)c2cc(COc3ccccc3SC)on2)CC1 | inactive |
| CCOc1ccc(C(=O)NCC(=O)OCc2c(C)noc2C)cc1OCC | inactive |
| COc1cccc(NC(=O)COC(=O)c2c(F)cccc2F)c1 | inconclusive: 18.4 µM [activator, single point] |
| COc1ccc(-c2noc(CCC(=O)NCc3cccnc3)n2)cc1 | inactive |
| COc1ccc(N=Cc2ccccc2O)cc1 | inactive |
| CCOc1ccc(NC(=O)c2sc3nc(N4CCOCC4)c4c(c3c2N)CCCC4)cc1 | active: 2.91 µM |
| Cc1ccc(S(=O)(=O)NCc2ccccc2)cc1C(=O)N1CCN(c2ccccc2)CC1 | inconclusive: 29.1 µM [activator, single point] |
| Cc1ccc(NC(=O)CN(C)S(=O)(=O)c2ccc3[nH]c(=O)oc3c2)c(C)c1 | inactive |
| COc1ccc(S(=O)(=O)N2CCCC(C(=O)NCc3cccnc3)C2)cc1OC (configuration not stated) | inconclusive: 23.1 µM [activator, partial curve, poor fit] |
| C=C1C(=O)C=C[C@]2(C)C[C@@H]3OC(=O)[C@](C)(O)[C@H]3C[C@@H]12 | inconclusive: 10.3 µM [activator, partial curve, poor fit] |
| O=C(c1ccc(-c2cc(O)c3ncccc3c2)cc1)N1CCNCC1 | inconclusive: 29.1 µM [activator, single point] |
| CC[n+]1c(/C=C/C=C/N(C(C)=O)c2ccccc2)sc2cc(OC)ccc21 | inconclusive: 2.91 µM [activator, full curve] |
| FC(F)Sc1ccc(N=C2NN=C(c3ccc4c(c3)OCCO4)CS2)cc1 | active: 11.6 µM |
| CC(NC(=O)c1ccco1)C(=O)N1CCN(c2ccccc2)CC1 (configuration not stated) | inactive |
| Cc1cc(C)c2c(N)c(C(=O)Nc3cccc(C)c3C)sc2n1 | active: 11.6 µM |
| CCc1ccc(C(=O)COC(=O)c2cc([N+](=O)[O-])ccc2N2CCOCC2)cc1 | active: 10.3 µM |
| O=C(NCCc1ccc(Cl)cc1)c1n[nH]c2ccccc12 | inconclusive: 0.103 µM [activator, full curve, poor fit] |
| O=C(NC1CCN(Cc2ccccc2)CC1)C1CCCN(S(=O)(=O)c2cccc3nonc23)C1 (configuration not stated) | inconclusive: 29.1 µM [activator, single point] |

Quoted from the listing:
COc1ccc(-c2noc(CCC(=O)NCc3cccnc3)n2)cc1 | Potency: inactive
O=C(NCCc1ccc(Cl)cc1)c1n[nH]c2ccccc12 | Potency: inconclusive: 0.103 µM [activator, full curve, poor fit]
